Experimental data as given in the supplement of paper PMC12067093, “Discovery and optimisation of a covalent ligand for TRIM25 and its application to targeted protein ubiquitination” (Chemical Science, 2025).
This is one part of the list.

Sequences of proteins named here, by UniProt entry; tags and fusion partners are left off. A change or cut given only in a name is not applied to a line headed by its entry.
UniProt P50990: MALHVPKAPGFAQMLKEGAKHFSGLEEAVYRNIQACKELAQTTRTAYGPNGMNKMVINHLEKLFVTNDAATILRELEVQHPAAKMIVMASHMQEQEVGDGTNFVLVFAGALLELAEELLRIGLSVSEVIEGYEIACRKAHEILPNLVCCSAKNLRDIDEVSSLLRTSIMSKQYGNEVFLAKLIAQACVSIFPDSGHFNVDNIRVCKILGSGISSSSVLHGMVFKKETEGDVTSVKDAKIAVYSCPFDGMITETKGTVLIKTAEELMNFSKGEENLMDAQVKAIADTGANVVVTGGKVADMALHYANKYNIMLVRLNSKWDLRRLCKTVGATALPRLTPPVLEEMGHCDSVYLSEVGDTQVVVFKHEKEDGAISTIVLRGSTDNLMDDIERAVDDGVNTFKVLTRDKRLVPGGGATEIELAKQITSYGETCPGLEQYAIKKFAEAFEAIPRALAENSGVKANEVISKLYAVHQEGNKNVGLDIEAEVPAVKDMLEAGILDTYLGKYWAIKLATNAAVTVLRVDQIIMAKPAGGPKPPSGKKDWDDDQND
UniProt Q9H3R5: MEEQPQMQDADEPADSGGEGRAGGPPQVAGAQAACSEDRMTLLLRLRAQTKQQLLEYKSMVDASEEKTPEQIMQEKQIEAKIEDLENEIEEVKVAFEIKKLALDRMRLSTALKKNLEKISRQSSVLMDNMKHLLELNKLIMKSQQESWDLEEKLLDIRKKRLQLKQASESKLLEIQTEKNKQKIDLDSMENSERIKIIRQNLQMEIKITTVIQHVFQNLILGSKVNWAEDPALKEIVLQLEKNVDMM
UniProt O95319: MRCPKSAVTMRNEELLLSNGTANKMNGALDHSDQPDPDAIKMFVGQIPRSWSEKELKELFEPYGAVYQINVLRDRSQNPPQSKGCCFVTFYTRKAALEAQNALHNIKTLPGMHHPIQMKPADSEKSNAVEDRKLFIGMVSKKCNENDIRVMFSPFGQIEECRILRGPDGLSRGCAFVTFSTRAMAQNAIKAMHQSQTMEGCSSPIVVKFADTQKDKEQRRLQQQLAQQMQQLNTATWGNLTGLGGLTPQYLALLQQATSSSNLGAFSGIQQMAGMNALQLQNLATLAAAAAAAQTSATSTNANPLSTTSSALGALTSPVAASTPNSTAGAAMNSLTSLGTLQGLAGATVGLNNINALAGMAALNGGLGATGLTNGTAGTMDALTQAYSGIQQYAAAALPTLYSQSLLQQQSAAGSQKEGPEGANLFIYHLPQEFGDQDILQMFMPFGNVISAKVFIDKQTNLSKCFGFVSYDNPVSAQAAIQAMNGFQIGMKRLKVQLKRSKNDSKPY
UniProt Q9UJX2, whole entry, looked up: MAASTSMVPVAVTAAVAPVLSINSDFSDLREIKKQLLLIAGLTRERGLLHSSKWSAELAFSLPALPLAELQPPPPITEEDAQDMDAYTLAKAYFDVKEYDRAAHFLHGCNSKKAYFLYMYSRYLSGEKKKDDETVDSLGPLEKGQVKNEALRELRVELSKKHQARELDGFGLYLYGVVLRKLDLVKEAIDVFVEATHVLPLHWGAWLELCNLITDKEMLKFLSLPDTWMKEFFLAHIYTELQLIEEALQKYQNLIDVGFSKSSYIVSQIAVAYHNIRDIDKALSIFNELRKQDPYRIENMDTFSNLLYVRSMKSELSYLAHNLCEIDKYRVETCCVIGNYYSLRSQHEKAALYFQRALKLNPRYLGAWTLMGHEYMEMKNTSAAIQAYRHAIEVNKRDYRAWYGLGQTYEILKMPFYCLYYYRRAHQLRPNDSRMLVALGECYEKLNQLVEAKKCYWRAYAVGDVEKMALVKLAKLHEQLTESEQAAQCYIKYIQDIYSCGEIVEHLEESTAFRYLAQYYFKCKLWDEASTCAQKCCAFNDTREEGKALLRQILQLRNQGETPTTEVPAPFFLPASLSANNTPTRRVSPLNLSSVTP
UniProt P49454: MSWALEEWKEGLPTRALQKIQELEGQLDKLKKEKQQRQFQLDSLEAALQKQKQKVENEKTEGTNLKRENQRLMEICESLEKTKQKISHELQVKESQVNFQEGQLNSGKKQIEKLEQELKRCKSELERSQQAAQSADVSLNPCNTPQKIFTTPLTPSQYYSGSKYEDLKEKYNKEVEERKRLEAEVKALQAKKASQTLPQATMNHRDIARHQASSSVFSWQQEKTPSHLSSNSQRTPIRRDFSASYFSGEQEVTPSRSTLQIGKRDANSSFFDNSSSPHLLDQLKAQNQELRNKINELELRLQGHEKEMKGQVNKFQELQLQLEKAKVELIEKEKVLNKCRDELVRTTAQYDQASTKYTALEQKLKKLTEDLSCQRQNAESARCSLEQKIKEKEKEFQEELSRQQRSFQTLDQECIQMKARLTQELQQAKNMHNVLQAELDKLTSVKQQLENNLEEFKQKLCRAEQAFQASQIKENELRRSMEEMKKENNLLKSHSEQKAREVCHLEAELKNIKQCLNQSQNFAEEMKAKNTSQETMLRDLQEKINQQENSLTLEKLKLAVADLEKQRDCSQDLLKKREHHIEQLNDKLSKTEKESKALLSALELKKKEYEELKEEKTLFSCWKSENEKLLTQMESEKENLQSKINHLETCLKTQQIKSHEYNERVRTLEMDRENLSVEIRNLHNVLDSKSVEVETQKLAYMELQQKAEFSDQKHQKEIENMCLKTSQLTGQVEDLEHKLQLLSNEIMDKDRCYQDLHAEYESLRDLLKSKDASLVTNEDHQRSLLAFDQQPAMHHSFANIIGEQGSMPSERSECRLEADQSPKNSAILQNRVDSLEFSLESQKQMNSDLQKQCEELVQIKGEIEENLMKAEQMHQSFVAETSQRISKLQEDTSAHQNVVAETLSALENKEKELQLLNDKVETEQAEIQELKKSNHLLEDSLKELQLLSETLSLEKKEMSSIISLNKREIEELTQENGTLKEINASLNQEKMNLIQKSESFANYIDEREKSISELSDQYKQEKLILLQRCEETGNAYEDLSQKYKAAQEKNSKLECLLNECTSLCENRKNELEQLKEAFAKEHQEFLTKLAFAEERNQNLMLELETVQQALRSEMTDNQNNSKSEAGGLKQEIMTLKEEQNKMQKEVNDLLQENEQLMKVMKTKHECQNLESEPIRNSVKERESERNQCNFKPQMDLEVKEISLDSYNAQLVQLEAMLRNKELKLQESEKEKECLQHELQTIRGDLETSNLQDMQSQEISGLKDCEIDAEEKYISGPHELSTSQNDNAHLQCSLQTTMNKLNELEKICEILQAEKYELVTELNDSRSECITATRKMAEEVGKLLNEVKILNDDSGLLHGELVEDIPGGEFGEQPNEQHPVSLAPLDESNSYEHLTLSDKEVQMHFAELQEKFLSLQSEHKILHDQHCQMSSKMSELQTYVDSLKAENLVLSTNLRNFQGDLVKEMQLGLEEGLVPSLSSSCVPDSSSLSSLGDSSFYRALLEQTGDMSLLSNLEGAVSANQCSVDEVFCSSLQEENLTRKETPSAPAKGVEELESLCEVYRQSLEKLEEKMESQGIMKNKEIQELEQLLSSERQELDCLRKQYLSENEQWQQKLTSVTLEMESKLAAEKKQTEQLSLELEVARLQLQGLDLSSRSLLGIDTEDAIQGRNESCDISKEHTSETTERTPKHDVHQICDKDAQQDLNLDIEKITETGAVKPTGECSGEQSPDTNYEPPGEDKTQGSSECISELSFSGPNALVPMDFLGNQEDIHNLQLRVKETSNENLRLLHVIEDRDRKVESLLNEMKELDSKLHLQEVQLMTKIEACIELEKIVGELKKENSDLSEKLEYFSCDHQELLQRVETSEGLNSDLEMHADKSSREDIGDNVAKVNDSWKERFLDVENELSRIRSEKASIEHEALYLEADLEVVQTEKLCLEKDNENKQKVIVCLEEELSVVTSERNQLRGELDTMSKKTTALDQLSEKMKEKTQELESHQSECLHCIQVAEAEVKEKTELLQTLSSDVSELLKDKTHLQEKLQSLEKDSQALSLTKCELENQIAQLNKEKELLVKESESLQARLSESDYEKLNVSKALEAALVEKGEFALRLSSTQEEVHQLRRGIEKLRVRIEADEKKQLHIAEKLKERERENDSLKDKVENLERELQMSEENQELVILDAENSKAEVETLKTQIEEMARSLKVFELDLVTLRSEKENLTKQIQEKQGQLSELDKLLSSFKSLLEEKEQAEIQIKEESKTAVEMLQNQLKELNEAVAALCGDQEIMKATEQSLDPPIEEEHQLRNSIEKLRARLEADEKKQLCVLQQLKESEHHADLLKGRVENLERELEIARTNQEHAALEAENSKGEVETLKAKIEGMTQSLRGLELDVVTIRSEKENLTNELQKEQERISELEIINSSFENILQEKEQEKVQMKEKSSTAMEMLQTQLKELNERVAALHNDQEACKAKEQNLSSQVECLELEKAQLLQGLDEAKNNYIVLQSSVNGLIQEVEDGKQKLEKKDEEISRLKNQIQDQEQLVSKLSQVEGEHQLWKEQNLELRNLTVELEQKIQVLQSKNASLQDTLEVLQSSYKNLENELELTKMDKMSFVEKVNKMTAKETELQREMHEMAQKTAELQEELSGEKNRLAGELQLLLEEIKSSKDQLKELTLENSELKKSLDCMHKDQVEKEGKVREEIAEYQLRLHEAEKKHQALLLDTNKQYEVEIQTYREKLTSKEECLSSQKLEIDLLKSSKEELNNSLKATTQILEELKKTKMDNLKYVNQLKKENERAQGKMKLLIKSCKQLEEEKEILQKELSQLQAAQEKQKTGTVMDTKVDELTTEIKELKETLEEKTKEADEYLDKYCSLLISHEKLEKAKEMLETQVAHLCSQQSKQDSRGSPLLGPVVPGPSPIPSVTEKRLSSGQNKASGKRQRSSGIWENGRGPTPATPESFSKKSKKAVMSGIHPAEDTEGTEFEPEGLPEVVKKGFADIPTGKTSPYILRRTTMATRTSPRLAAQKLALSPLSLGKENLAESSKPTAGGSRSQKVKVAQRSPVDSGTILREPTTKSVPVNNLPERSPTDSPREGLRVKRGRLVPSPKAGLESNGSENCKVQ
UniProt P30260, whole entry, looked up: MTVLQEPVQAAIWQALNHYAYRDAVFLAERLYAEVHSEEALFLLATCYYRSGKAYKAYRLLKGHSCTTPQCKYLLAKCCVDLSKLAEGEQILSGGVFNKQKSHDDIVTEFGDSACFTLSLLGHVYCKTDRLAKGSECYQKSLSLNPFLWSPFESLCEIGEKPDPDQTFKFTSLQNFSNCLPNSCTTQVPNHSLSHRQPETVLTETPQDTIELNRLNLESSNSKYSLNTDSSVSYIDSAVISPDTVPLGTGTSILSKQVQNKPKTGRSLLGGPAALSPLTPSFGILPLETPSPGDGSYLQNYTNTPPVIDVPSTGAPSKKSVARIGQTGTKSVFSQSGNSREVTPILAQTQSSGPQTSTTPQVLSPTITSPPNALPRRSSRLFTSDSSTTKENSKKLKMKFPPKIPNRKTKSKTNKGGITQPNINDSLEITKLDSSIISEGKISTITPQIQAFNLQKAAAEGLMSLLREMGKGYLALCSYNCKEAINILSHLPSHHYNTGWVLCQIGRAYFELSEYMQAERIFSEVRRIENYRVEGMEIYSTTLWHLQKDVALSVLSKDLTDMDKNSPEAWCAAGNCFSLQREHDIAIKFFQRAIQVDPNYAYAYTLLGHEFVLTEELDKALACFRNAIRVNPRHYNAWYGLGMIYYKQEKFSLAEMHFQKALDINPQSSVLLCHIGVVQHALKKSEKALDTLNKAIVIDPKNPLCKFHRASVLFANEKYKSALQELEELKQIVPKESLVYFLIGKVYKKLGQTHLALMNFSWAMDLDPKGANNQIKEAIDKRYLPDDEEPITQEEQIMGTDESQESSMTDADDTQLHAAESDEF
UniProt Q6P2H3: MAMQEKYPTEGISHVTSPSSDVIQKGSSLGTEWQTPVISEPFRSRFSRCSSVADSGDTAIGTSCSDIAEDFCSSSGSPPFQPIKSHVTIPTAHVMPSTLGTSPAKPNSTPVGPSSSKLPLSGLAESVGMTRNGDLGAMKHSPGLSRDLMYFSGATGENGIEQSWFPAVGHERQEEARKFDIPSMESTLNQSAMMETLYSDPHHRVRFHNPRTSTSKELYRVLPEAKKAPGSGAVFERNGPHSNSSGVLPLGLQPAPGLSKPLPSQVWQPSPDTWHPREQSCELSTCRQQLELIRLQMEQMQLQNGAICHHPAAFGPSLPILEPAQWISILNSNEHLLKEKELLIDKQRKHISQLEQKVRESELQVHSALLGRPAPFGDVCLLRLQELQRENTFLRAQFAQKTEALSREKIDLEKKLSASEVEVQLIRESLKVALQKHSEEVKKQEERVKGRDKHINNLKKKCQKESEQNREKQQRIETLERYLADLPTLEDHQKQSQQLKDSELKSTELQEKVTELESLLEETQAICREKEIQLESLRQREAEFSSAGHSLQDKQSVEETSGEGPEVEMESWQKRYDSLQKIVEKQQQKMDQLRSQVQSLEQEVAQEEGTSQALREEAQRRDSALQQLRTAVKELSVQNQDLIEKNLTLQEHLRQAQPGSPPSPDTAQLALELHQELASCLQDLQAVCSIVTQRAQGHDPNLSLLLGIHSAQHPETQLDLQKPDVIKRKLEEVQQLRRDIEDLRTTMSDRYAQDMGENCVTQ

The targets below were run with CC1Cc2ccccc2N1C(=O)C1CCCN(C1)C(=O)CCl (mixture of isomers) [TRIM25 ligand 11 (diastereomer mixture)] (assay: probe-labelled cysteine peptide fold change vs DMSO (competition) (log2 fold change); higher = less target engagement (more negative = stronger competition)). Details: 10 µM; THP-1; incubation time: 4 h.
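Also: competitive chemoproteomic profiling in live THP-1 cells with an iodoacetamide desthiobiotin (IA-DTB) probe, comparing probe-labelled peptide intensities in compound-treated cells against DMSO-treated controls.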

| Target | probe-labelled cysteine peptide fold change |
| --- | --- |
| CCT8_P50990_136_IGLSVSEVIEGYEIACR (UniProt P50990) | 0.108 |
| CENPH_Q9H3R5_35_AGGPPQVAGAQAACSEDR (UniProt Q9H3R5) | 0.0306 |
| CDC40_O60508_553_VCIGAVWHPHETSK (UniProt O60508) | 0.00393 |
| CELF2_O95319_161_VMFSPFGQIEECR (UniProt O95319) | -0.0884 |
| CDC23_Q9UJX2_324_SELSYLAHNLCEIDK (UniProt Q9UJX2) | 0.169 |
| CENPF_P49454_2776_SLDCMHK (UniProt P49454) | -0.135 |
| CEP131_Q9UPN4_218_AATCEGSESSGFGK (UniProt Q9UPN4) | 0.0246 |
| CDCA7L_Q96GN5_383_GQFCGPCLR (UniProt Q96GN5) | 0.0119 |
| CD97_P48960_256_DTVCEDMTFSTWTPPPGVHSQTLSR (UniProt P48960) | 0.0551 |
| CDC37L1_Q7L3B6_190_FLSDHPYLVCEETAK (UniProt Q7L3B6) | 0.0895 |
| CDC73_Q6P1J9_145_IEDEECVRLDK (UniProt Q6P1J9) | -0.292 |
| CCT8_P50990_148+149_KAHEILPNLVCCSAK (UniProt P50990) | -0.187 |
| CERCAM_Q5T4B2_391_GEVGCFLSHYSIWEEVVAR (UniProt Q5T4B2) | 0.0829 |
| CDC27_P30260_115+126_SHDDIVTEFGDSACFTLSLLGHVYCK (UniProt P30260) | 0.166 |
| CENPF_P49454_1233_ECLQHELQTIR (UniProt P49454) | -0.0765 |
| CCT8_P50990_136_IGLSVSEVIEGYEIACRK (UniProt P50990) | 0.129 |
| CDC27_P30260_673_ALDINPQSSVLLCHIGVVQHALKK (UniProt P30260) | -0.0964 |
| CEP97_Q8IW35_484_AGLLPCPEPTIISAILK (UniProt Q8IW35) | 0.288 |
| CEP85_Q6P2H3_527_VTELESLLEETQAICR (UniProt Q6P2H3) | 0.0472 |

| Target | probe-labelled cysteine peptide fold change |
| --- | --- |
| CEP76_Q8TAP6_414_GVPHAWVMTCGTDGAITFWESLTGHR (UniProt Q8TAP6) | 0.105 |
| CEP290_O15078_998_TSNLEHLECENISLK (UniProt O15078) | 0.0184 |
| CDC27_P30260_481_GYLALCSYNCK (UniProt P30260) | -0.0893 |
| CDK5RAP3_Q96JB5_150_KEEECQAGAAEMR (UniProt Q96JB5) | -0.113 |
| CEP85_Q6P2H3_380_PAPFGDVCLLR (UniProt Q6P2H3) | -0.0377 |
| CDK5RAP3_Q96JB5_165_EQFYHSCK (UniProt Q96JB5) | 0.0193 |
| CENPF_P49454_503_EVCHLEAELK (UniProt P49454) | -0.0277 |
| CENPF_P49454_1426_ILHDQHCQMSSK (UniProt P49454) | 0.0226 |
| CELF1_Q92879_119_KCTENDIR (UniProt Q92879) | -0.0544 |
| CCT4_P50991_337_DIEREDIEFICK (UniProt P50991) | -0.0115 |
| CDK8_P49336_25_VEDLFEYEGCK (UniProt P49336) | -0.0464 |
| CDC16_Q13042_544_CYDFDVHTMK (UniProt Q13042) | -0.158 |
| CDK5_Q00535_83_LTLVFEFCDQDLK (UniProt Q00535) | 0.0724 |
| CDC42SE1_Q9NRR8_11_LGCCVVEKPQPK (UniProt Q9NRR8) | -0.224 |
| CCT4_P50991_295_KTGCNVLLIQK (UniProt P50991) | -0.186 |
| CEP192_Q8TEP8_1828_LTSNCEIR (UniProt Q8TEP8) | 0.0778 |
| CDC25C_P30307_42_DTSFTVCPDVPR (UniProt P30307) | 0.047 |
| CD70_P32970_17_RRPYGCVLR (UniProt P32970) | -0.0812 |
| CEBPZ_Q03701_374_ALTVAHELLCNKPEEEK (UniProt Q03701) | -0.0843 |

A stretch from further up, as a working copy:

| Target | probe-labelled cysteine peptide fold change |
| --- | --- |
| CELF2_O95319_161_VMFSPFGQIEECR (UniProt O95319) | -0.0884 |
| CDC23_Q9UJX2_324_SELSYLAHNLCEIDK (UniProt Q9UJX2) | 0.169 |
